At least one structure is not confirmed: it was looked up by name or label, or the drawing left a doubt.
Tests used:
[1] = Nanoparticle formation with indocyanine IR783 by nano-precipitation (DLS / visual precipitation)
ERK phosphorylation = assay: IHC of pERK in skin and tumor as biomarker of drug activity; type: in vivo, mice

Row | SMILES | formation of nanoparticles with indocyanine [1] | pERK in the skin and tumor (ERK phosphorylation; after 24 h) | ERK phosphorylation in the skin and tumor (ERK phosphorylation; at 2h)
1 | Cc1ccc(-c2cc(C(F)(F)F)nn2-c2ccc(S(N)(=O)=O)cc2)cc1 [Celecoxib] | formed nanoparticles |  | 
2 | CC(=O)Nc1cccc(-n2c(=O)n(C3CC3)c(=O)c3c(Nc4ccc(I)cc4F)n(C)c(=O)c(C)c32)c1 [Trametinib] |  | pERK returned in both | pronounced inhibition
